According to patent US20170096487A1:

Columns and labels:
human HER3 (human) [1] = test: IHC on FFPE NSCLC tissue, Ventana Benchmark XT
human HER3 (human) [2] = test: Western blot on lysates of HER3-transfected HEK293 cells
human HER3 (human) [3] = test: Western blot on lysates of fresh frozen NSCLC samples, 37 C
human HER3 (human) [4] = test: IHC on FFPE HER3-transfected HEK293 cells, Ventana Benchmark XT
human HER3 (human) [5] = test: Western blot on lysates of fresh frozen NSCLC samples with different HER3 expression levels, primary antibody at 37°C, HRP-conjugated anti-mouse Fab as secondary antibody
human HER3 (human) [6] = test: IHC on FFPE human colon and lung tumour tissue, Ventana Benchmark XT, 125 ng/ml

Measured: binding

B1: MAK<humanHER3> M-7.2.42 (antibody, V domains shown)
VH: EVQLLQSGPELVKPGASVKMSCKASGYTFTDYNLHWVKQSHGRTLEWIGYFNPYNGGTFYTQKFKDKATLTINKSSSTAYMELRSLTSEDSAVYYCTRRYFDGSSYFDYWGQGTTLTVSS
VL: DVLMTQTPLSLPVSLGDQASISCRSSQTIVHSNGNTYLEWYVQKPGQSLKLLIYKVSNRFSGVPDRFSGSGSGTDFTLKISRVEAEDLGVYYCFQGSHVPRAFGGGTKLEIKR
binds: human HER3 (human) [1] | human HER3 (human) [2] | human HER3 (human) [3] | human HER3 (human) [4] | human HER3 (human) [5]

B2: MAK<humanHER3> M-7.3.8 (antibody, V domains shown)
VH: B1 VH with L5Q, V12A, R43K, P53T, T58I, Q112R
VL: B1 VL with T7I, T28S, L49P, V99A, A102T
binds: human HER3 (human) [2] | human HER3 (human) [4] | human HER3 (human) [6]

Positions count from the first letter of the chain named. These are yes or no findings as the source states them, for the method shown. A result given as binding can be weak or reduced; the word gives no strength.
